From paper doi:10.1101/2021.11.24.469949

B1: ZPR3 (endogenous) (protein, UniProt Q9LXI8 1-67)
chain: MERLNSKLFVENCYIMKENERLRKKAELLNQENQQLLFQLKQKLSKTKNSNNGSNNDNKSSSASGQS
B2: ZPR4 (endogenous) (protein, UniProt Q56WL5 1-72)
chain: MERLNSKLYLQNCYIIKENERLRKKAQILNQENQQLLFELKQKLSKTKNSSGSNQGNNNNNNNLSSSSSASG
B3: CORONA/ATHB15 (CNA) (protein, UniProt Q9ZU11 1-836)
chain: MAMSCKDGKLGCLDNGKYVRYTPEQVEALERLYHDCPKPSSIRRQQLIRECPILSNIEPKQIKVWFQNRRCREKQRKEASRLQAVNRKLTAMNKLLMEENDRLQKQVSQLVHENSYFRQHTPNPSLPAKDTSCESVVTSGQHQLASQNPQRDASPAGLLSIAEETLAEFLSKATGTAVEWVQMPGMKPGPDSIGIIAISHGCTGVAARACGLVGLEPTRVAEIVKDRPSWFRECRAVEVMNVLPTANGGTVELLYMQLYAPTTLAPPRDFWLLRYTSVLEDGSLVVCERSLKSTQNGPSMPLVQNFVRAEMLSSGYLIRPCDGGGSIIHIVDHMDLEACSVPEVLRPLYESPKVLAQKTTMAALRQLKQIAQEVTQTNSSVNGWGRRPAALRALSQRLSRGFNEAVNGFTDEGWSVIGDSMDDVTITVNSSPDKLMGLNLTFANGFAPVSNVVLCAKASMLLQNVPPAILLRFLREHRSEWADNNIDAYLAAAVKVGPCSARVGGFGGQVILPLAHTIEHEEFMEVIKLEGLGHSPEDAIVPRDIFLLQLCSGMDENAVGTCAELIFAPIDASFADDAPLLPSGFRIIPLDSAKEVSSPNRTLDLASALEIGSAGTKASTDQSGNSTCARSVMTIAFEFGIESHMQEHVASMARQYVRGIISSVQRVALALSPSHISSQVGLRTPLGTPEAQTLARWICQSYRGYMGVELLKSNSDGNESILKNLWHHTDAIICCSMKALPVFTFANQAGLDMLETTLVALQDISLEKIFDDNGRKTLCSEFPQIMQQGFACLQGGICLSSMGRPVSYERAVAWKVLNEEENAHCICFVFINWSFV
B4: FKBP53 (AT4G25340.1) (protein, UniProt Q93ZG9 1-477)
chain: MGFWGLEVKPGKPQAYNPKNEQGKIHVTQATLGTGLSKEKSVIQCSIGDKAPIALCSLLPNKIECCPLNLEFDDDDEPVEFTVTGDRSIHLSGFLEYYQDDEDDYEHDEDDSDGIDVGESEEDDSCEYDSEEDEQLDEFEDFLDSNLERYRNAAAPKSGVIIEEIEDEEKPAKDNKAKQTKKKSQASEGENAKKQIVAIEGAHVPVLESEDEDEDGLPIPKGKSSEVENASGEKMVVDNDEQGSNKKRKAKAAEQDDGQESANKSKKKKNQKEKKKGENVLNEEAGQVQTGNVLKKQDISQISSNTKAQDGTANNAMSESSKTPDKSAEKKTKNKKKKKPSDEAAEISGTVEKQTPADSKSSQVRTYPNGLIVEELSMGKPNGKRADPGKTVSVRYIGKLQKNGKIFDSNIGKSPFKFRLGIGSVIKGWDVGVNGMRVGDKRKLTIPPSMGYGVKGAGGQIPPNSWLTFDVELINVQ
B5: VIP3 (AT4G29830.1) (protein, UniProt Q9SZQ5 1-321)
chain: MKLAGLKSIENAHEDSVWAATWVPATEDRPALLLTGSLDETVKLWRPDELDLVRTNTGHSLGVAALAAHPSGIIAASSSIDSFVRVFDVDTNATIAVLEAPPSEVWGMQFEPKGTILAVAGGSSASVKLWDTASWRLISTLSIPRPDAPKPSDKTSSKKFVLSVAWSPNGKRLACGSMDGTICVFDVDRSKLLHQLEGHNMPVRSLVFSPVDPRVLFSGSDDGHVNMHDAEGKTLLGSMSGHTSWVLSVDASPDGGAIATGSSDRTVRLWDLKMRAAIQTMSNHNDQVWSVAFRPPGGTGVRAGRLASVSDDKSVSLYDYS
B6: PRMT4B (AT3G06930.2) (protein, UniProt Q84W92 1-535)
chain: MEVSSVKKLEQLEYSLESVTDLSSSSVSSSSPAVATFSYVDGVTELRFLQSDSTHCFNFDLASAQLFKLGPVHFICVSDGSSSSEEKSFSKGVNIKFKNEKDSKDFCESFEEWRNDSVVQGSSLQNGTVSANKSKFDNKIEASSAKMYFHYYGQLLHQQNMLQDYVRTGTYYAAVMENHSDFAGRVVVDVGAGSGILSMFAAQAGAKHVYAVEASEMAEYARKLIAGNPLFADRITVIKGKVEDIELPEKADILISEPMGTLLVNERMLESYVIARDRFMTPKGKMFPTVGRIHMAPFSDEFLFIEMANKAMFWQQQNYYGVDLTPLYGSAHQGYFSQPVVDAFDPRLLVASPMFHMIDFTQMKEEDFYEIDIPLKFTASMCTRMHGLACWFDVLFDGSTVQRWLTTAPGAPTTHWYQIRCVLSQPIYVMAGQEITGRLHLIAHSAQSYTIDLTLSAKMWGPGASQGGILQSSTCKFDLKEPYYRMSQPQAYPVAQEPPLQPQPELSTQQDIQTPNDELEEELLQQLPQNPSAQL
B7: AT5G49020.1 (protein, UniProt A3KPF2 1-528)
chain: MEIPSLNKQQEFTLASVTDLTSPSSSLSSSPVVATFSCVNEVKELRFQESKSSDGFSFDLSSTQLFKLGPLQFTCVSDGSISSAKEKSSFSRGVVIKFRDEKDSKEFCDSFEECKKDDAVKQGSALPNGTVVSANKSKFDDKIEAASAKMYFHYYGQLLHQQNMLQDYVRTGTYHAAVMENRSDFSGRVVVDVGAGSGILSMFAALAGAKHVYAVEASEMAEYARKLIAGNPLLAERITVIKGKIEDIELPEKADVLISEPMGTLLVNERMLETYVIARDRFLSPNGKMFPTVGRIHMAPFADEFLFVEMANKALFWQQQNYYGVDLTPLYVSAHQGYFSQPVVDAFDPRLLVAPSMFHVIDFTMMTEEQFYEIDIPLKFTASVCTRIHGLACWFDVLFDGSTVQRWFTTAPGAPTTHWYQIRCVLSQPIHVMAGQEITGRLHLIAHSAQSYTINLTLSAKMWGPGANQGGILQTSSCKLDLKEPYYRMSQPQVYPTQEPPAQSQDIHIHSDDLEELELLQQNANAQL
B8: AT2G30620.1 (protein, UniProt P26569 1-273)
chain: MSIEEENVPTTVDSGAADTTVKSPEKKPAAKGGKSKKTTTAKATKKPVKAAAPTKKKTTSSHPTYEEMIKDAIVTLKERTGSSQYAIQKFIEEKHKSLPPTFRKLLLVNLKRLVASEKLVKVKASFKIPSARSAATPKPAAPVKKKATVVAKPKGKVAAAVAPAKAKAAAKGTKKPAAKVVAKAKVTAKPKAKVTAAKPKSKSVAAVSKTKAVAAKPKAKERPAKASRTSTRTSPGKKVAAPAKKVAVTKKAPAKSVKVKSPAKRASTRKAKK

Tests used:
Test in all cases: affinity purification with mass spectrometry
[1] = molecular target: T1, 3xFLAG tagged REV (Arabidopsis) (UniProt Q9SE43)
T1 sequence: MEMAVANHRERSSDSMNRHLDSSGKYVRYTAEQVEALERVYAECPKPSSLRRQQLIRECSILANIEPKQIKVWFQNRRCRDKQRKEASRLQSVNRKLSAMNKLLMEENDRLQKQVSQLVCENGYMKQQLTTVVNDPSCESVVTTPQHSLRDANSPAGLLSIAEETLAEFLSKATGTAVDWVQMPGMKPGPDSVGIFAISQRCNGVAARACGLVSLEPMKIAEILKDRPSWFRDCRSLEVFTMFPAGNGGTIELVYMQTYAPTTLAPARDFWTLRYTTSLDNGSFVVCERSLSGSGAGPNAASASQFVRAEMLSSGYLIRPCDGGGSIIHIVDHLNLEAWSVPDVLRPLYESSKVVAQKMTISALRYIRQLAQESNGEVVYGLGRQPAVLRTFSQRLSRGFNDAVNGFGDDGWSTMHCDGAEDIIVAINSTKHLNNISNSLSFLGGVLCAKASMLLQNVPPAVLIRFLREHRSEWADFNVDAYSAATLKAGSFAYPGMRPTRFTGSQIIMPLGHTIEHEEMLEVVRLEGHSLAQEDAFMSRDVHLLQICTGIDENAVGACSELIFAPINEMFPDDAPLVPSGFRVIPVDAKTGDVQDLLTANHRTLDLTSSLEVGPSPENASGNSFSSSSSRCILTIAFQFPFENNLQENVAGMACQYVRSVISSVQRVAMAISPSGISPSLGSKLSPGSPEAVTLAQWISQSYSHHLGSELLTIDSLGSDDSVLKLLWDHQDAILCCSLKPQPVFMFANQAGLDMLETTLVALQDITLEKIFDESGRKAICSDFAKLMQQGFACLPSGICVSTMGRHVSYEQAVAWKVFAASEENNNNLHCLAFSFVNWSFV

[2] = molecular target: T2, 3xFLAG tagged PHB (Arabidopsis) (UniProt O04291)
T2 sequence: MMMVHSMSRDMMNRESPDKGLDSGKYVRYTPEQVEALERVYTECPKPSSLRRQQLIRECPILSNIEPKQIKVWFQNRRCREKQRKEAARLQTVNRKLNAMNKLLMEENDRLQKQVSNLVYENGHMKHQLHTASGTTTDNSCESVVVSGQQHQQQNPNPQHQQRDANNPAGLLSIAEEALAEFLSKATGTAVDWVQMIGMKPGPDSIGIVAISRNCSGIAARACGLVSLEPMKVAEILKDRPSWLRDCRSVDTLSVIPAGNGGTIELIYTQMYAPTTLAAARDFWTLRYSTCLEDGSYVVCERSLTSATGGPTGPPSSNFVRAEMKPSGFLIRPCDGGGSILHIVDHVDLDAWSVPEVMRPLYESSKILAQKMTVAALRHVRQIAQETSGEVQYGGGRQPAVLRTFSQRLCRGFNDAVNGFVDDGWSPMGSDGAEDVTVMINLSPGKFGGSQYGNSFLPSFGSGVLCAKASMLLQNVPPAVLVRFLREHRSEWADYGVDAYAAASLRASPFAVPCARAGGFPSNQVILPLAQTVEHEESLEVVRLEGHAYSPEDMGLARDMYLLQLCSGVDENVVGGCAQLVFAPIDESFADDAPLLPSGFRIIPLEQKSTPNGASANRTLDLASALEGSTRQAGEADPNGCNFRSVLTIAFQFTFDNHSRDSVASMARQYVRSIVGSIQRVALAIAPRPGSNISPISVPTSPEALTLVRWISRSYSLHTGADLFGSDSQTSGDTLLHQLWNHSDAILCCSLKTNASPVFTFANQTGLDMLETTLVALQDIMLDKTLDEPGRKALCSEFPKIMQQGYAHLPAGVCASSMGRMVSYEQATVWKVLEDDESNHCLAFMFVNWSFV

[3] = molecular target: T3, ZPR2-tdTomato-3xFLAG (Arabidopsis) (UniProt Q9LZX5)
T3 sequence: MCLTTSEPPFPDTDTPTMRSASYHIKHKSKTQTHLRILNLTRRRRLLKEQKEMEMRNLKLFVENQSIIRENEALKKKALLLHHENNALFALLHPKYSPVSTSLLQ

[4] = molecular target: ZPR1-tdTomato-3xFLAG (Arabidopsis)

Binder	binding [1]	binding [3]	other results
B1	binds	–	–
B2	binds	–	binding [2]: binds
B3	binds	–	binding [2]: binds
B4	–	binds	–
B5	–	binds	–
B6	–	–	binding [4]: binds
B7	–	–	binding [4]: binds
B8	–	binds	–

No constants are given. Whether binding was seen depends on the method and setting. Binding seen in cells or lysates may run through a third protein. These calls come from enrichment with a bait or labelling near it, and not all partners need be listed. For some of these results: Sequences can lack the tags named with a protein.
